Measured values as given in publication PMC4646236.
Results are given in words; binding and its absence hold for the method and conditions named.

Biological target: MLL3 (mixed lineage leukemia 3) construct consisting of residues 4690-4911 (Win motif and SET domain), wild type (human) (UniProt Q8NEZ4)
Assay: SAXS; small angle x-ray scattering at 4 °C, two protein concentrations; 25 mM Tris pH 7.5, 300 mM NaCl, 1 μM ZnCl2, 5% glycerol, 3 mM DTT; samples passed over S200 size exclusion; molecular weight by the Porod volume method; both purified

For “MLL3 (mixed lineage leukemia 3) construct consisting of residues 4690-4911 (Win motif and SET domain), wild type (from UniProt Q8NEZ4 4690-4911) (domain or fragment)”, the binding was “no binding”.
